Source: PubChem BioAssay AID602313 (National Center for Advancing Translational Sciences (NCATS), 2012)
In all, about 390,000 compounds went through this assay and about 760 (0.19%) were called active. The shares of active, inactive and inconclusive entries below differ from those in the screen. Calls follow the shape of the dose curve; as a rule, active = well fitted inhibition curve with a large enough effect; inconclusive = small, poorly fitted or top-dose-only effect; inactive = flat fitted curve, though single readings scatter. Potencies beside an inconclusive call are fits to weak or partial responses and may not hold up.

assay: qHTS for Inhibitors of Vif-A3F Interactions: qHTS; details: HeLa A3F-eYFP + Vif (tagged APOBEC3F with the HIV-1 protein that degrades it), YFP fluorescence increase; series mostly up to 46.1 µM; also: nearly all actives have a fitted effect of over 65% in size
Outline: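 Fluorescence increase (Ex 488/Em 500-530) after overnight compound treatment at 37 deg C flags inhibition of Vif-driven A3F-eYFP loss in stable HeLa A3F-eYFP/Vif cells seeded overnight beforehand.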
Potency is read from the fitted curve at half-maximal effect.

SMILES | Potency
CCC(C)NC(=O)CN1C(=O)NC2(CCOc3ccccc32)C1=O (centres undefined) | inconclusive: 3.98 µM [inhibitor, partial curve, poor fit]
COc1ccc(OC)c(NC(=O)CSC2=Nc3ccccc3C3=NC(CC(=O)NCc4ccco4)C(=O)N23)c1 (centres undefined) | inactive
CCOc1ccc(N2CC(C(=O)Nc3ccccc3C(=O)NC3CC3)CC2=O)cc1 (centres undefined) | inconclusive: 12.6 µM [inhibitor, single point]
O=C1C2CC=C(Cl)CC2C(=O)N1CCc1ccccc1 (centres undefined) | inactive
N#Cc1ccc(C(=O)Nc2ccc(Cl)c(-c3nc4cc(Cl)ccc4o3)c2)c(F)c1 | inconclusive: 25.1 µM [inhibitor, single point]
CCS(=O)(=O)c1ncc(Cl)c(C(=O)N(Cc2ccccc2)Cc2ccco2)n1 | inactive
Cc1cc(F)ccc1NC(=O)CCc1c(C)nn(-c2ccc(N3CCCCC3)nn2)c1C | inactive
CCn1c(C)cc(/C=C2/SC(=S)N(CC(=O)O)C2=O)c1C | inconclusive: 12.6 µM [inhibitor, partial curve, poor fit]
NC(=O)CC(NC(=O)c1ccccc1)c1ccc(NCCOc2ccccc2)c([N+](=O)[O-])c1 (centres undefined) | inconclusive: 35.5 µM [inhibitor, single point]
Cc1ccc([C@H]2C[C@@H](n3cc(-c4ccc(F)cc4)nn3)[C@H](O)CN2Cc2cccs2)cc1 | inactive
COc1cc(NC(=O)C2CC(c3cccc(Br)c3)=NO2)cc(OC)c1OC (centres undefined) | inactive
O=C(NNc1cc(Cl)ccc1Cl)c1c(F)cccc1Cl | inconclusive: 20 µM [inhibitor, partial curve, poor fit]
C/C(=N/NC(=O)c1cccs1)c1c(C)[nH]n(-c2nc3ccccc3s2)c1=O | inconclusive: 3.55 µM [inhibitor, single point]
O=C(N/N=C\c1ccccc1)c1cccc(C(=O)N/N=C\c2ccccc2)n1 | inactive
Cc1cccc(CS(=O)(=O)CC2Nc3ccc(C(=O)NCc4ccccc4Cl)cc3NC2=O)c1 (centres undefined) | inconclusive: 35.5 µM [inhibitor, single point]
CCCCOc1ccc(C2NC(=O)NC(C)=C2C(C)=O)cc1OCC (centres undefined) | inconclusive: 5.62 µM [inhibitor, single point]
CCOC(=O)c1ccc(N2C(=O)c3[nH]nc(-c4ccc(OC)cc4)c3C2c2ccc(C)cc2)cc1 (centres undefined) | inconclusive: 22.4 µM [inhibitor, single point]
COc1ccc(N2CCN(C(CNS(=O)(=O)c3c(C)cc(C)cc3C)c3ccco3)CC2)cc1 (centres undefined) | inactive
N#Cc1c(C(F)(F)F)cc(-c2cccs2)nc1SCC(=O)Nc1ccc(Cl)cc1 | inconclusive: 20 µM [inhibitor, partial curve, poor fit]

No new results follow: 2 of the compounds above.
SMILES | Potency
COc1ccc(OC)c(NC(=O)CSC2=Nc3ccccc3C3=NC(CC(=O)NCc4ccco4)C(=O)N23)c1 (centres undefined) | inactive
CCOc1ccc(N2CC(C(=O)Nc3ccccc3C(=O)NC3CC3)CC2=O)cc1 (centres undefined) | inconclusive: 12.6 µM [inhibitor, single point]
